Literature values as cited in patent US9889183B2, “PKC activators and anticoagulant in regimen for treating stroke” (BLANCHETTE ROCKEFELLER NEUROSCIENCES INSTITUTE, priority 2010, dated 2018).
At least one compound was matched to its structure with a doubt left.

System: PKC in K562 cells
Settings: cited from earlier work

For `C=C(C)[C@@]12C[C@@H](COC(=O)c3ccccc3)[C@@]34OC5(O[C@@H]1[C@@H]3[C@@H]1O[C@]1(CO)[C@@H](O)[C@@]1(O)[C@H]4[C@H]([C@H](C)[C@@H]1OC(=O)c1ccccc1)[C@H](C)CCCCCC[C@H]5O)O2` [Gnidimacrin], the “concentration at which it acts as a PKC activator” value is given as 0.3 nM.
